The assay is described as follows: qHTS Assay for Lipid Storage Modulators in Drosophila S3 Cells.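 As to cell number change: cells counted by Cell Tracker Red CMTPX staining in the red channel.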 To be noted: BODIPY lipid droplet fluorescence, 18-24 h; for cell number change: measured here: cell count max response, cells fed with added oleic acid. In outline:
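Drosophila S3 cells loaded with oleic acid (400 uM, as added) and compounds at several concentrations; lipid droplets imaged by 488-nm laser-scanning cytometry, 500–530 nm intensity and object ratio to cell channel. Percent activity normalized to 20 uM Triacsin C.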

Setting [1] is: measured here: cell number channel AC50, cells fed with added oleic acid.
Where [2] appears, read: measured here: lipid fluorescence (Fed channel) AC50, cells fed with added oleic acid.

Structures are written as SMILES. Some of the results follow. The main result of the screen is listed elsewhere. These columns were measured beside it and carry no call. Most of these compounds were active or inconclusive in the main read-out, so they are no random draw. The note in brackets gives the kind of curve behind each potency; many fits are weak.

As usually defined, the AC50 is the concentration at which the activity in the assay is half-maximal. Read a high AC50 as weaker potency.

For `CC(=O)Nc1ccc(Nc2cc(C)nc3c(-c4ccc(Cl)cc4)c(C)nn23)cc1`, the cell number change was -45.1%. In addition, the AC50 under setting [1] is 18.4 µM [falling, single point]. Moreover, under setting [2], the AC50 is 20.6 µM [falling, single point].
Consider `Cc1ccc(NC(=O)NCc2c(C)nn(C)c2C)cc1Cl`, for which the AC50 under setting [1] was 0.651 µM [rising, single point].
As for `COC(=O)[C@H](CC(C)C)NC(=O)NC1CCCCC1C` (stereo not given in full), the AC50 under setting [2] was 0.651 µM [falling, full curve].
As for `CC(=O)Nc1ccc(C(=O)Nc2ccc(S(=O)(=O)NCC3CCCO3)cc2)cc1` (stereo not given), the cell number change was -5.56%.
Take `COC(=O)c1cc(Cl)cc2c(C)c(C3(O)CCCCC3)[nH]c12`: the cell number change was -10.8%. In addition, under setting [2], the AC50 is 0.58 µM [falling, single point].
Take `COc1cccc(-c2nn(-c3ccccc3)cc2/C=C(\C#N)C(=O)NCCCn2ccnc2)c1`: the cell number change stood at 60.1%. Besides, under setting [1], the AC50 is 8.2 µM [rising, single point].
As for `O=[N+]([O-])c1cc(-c2nnc(N3CCOCC3)c3ccccc23)ccc1N1CCOCC1`, the cell number change turned out to be 18.5%.
Still for that read-out and setting: as for `Cc1ccc(-n2c(N)c(C(=O)NCc3ccco3)sc2=S)cc1`, the figure is 11.6%.
As to `COc1ccc(OC)c(CNc2nc3ccccc3n2CCN2CCCCC2)c1`, the cell number change was determined as 17.8%. Further, the AC50 under setting [2] was 8.2 µM [rising, partial curve].
Turning to `Cc1cccc(NC(=O)COc2ccc(/C=N\n3cnnc3)cc2)c1`, the concentration at half-maximal activity (AC50) under setting [2] is 1.3 µM [rising, full curve, poor fit].
For `CCN(c1ccccc1)S(=O)(=O)c1cc(C(=O)NCc2ccco2)ccc1C`, the cell number change was 0.839%. Also, the AC50 under setting [2] is 8.2 µM [falling, partial curve, poor fit].
`CCOc1ccc(N=C2NC(=O)S/C2=C\c2ccc(N(C)C)cc2)cc1`: the cell number change is -13.8%. The AC50 under setting [1] was 2.31 µM [falling, partial curve, poor fit]. In addition, the AC50 under setting [2] was 7.31 µM [falling, partial curve, poor fit].
Turning to `COc1ccc(CCN(C(=O)C(F)(F)F)C(C(=O)NC2CCCC2)c2cccs2)cc1` (stereo not given), the cell number change is -9.48%.
On to `CCCc1nnc(NC(=O)c2ccc([N+](=O)[O-])cc2)s1`, for which the cell number change is -48%. Further, under setting [1], the AC50 was 8.2 µM [falling, partial curve]. Besides, the AC50 under setting [2] was 25.9 µM [falling, single point].
Turning to `CN(C)c1nc(N)nc(CSc2nc3cc(Cl)ccc3o2)n1`, the cell number change was determined as 60.8%. Also, the AC50 under setting [1] is 6.51 µM [rising, full curve]. Besides, under setting [2], the AC50 was 5.8 µM [rising, full curve].
Consider `Cn1c(=O)n(C)c2cc(NC(=O)COc3ccc(F)cc3)ccc21`, for which the AC50 under setting [2] is 0.58 µM [falling, single point].
For `O=C1CCC(C(=O)OCc2cc(Cl)ccc2OC(F)F)N1` (stereo not given), the cell number change came to 12.5%. Moreover, the AC50 under setting [2] was 0.00461 µM [rising, full curve, poor fit].

(Values after PubChem BioAssay AID2685 (National Center for Advancing Translational Sciences (NCATS), 2010).)
